Experimental data: publication PMC10601133
Results are given in words; binding and its absence hold for the method and conditions named. In cells and extracts the contact can be indirect. Some results given as binding are weak or reduced against the parent protein; the word gives no strength.

Protein sequences, listed by entry. Tags and fused reporters are not part of them. Residues count along the entry.
UniProt O00206, residues 24-839: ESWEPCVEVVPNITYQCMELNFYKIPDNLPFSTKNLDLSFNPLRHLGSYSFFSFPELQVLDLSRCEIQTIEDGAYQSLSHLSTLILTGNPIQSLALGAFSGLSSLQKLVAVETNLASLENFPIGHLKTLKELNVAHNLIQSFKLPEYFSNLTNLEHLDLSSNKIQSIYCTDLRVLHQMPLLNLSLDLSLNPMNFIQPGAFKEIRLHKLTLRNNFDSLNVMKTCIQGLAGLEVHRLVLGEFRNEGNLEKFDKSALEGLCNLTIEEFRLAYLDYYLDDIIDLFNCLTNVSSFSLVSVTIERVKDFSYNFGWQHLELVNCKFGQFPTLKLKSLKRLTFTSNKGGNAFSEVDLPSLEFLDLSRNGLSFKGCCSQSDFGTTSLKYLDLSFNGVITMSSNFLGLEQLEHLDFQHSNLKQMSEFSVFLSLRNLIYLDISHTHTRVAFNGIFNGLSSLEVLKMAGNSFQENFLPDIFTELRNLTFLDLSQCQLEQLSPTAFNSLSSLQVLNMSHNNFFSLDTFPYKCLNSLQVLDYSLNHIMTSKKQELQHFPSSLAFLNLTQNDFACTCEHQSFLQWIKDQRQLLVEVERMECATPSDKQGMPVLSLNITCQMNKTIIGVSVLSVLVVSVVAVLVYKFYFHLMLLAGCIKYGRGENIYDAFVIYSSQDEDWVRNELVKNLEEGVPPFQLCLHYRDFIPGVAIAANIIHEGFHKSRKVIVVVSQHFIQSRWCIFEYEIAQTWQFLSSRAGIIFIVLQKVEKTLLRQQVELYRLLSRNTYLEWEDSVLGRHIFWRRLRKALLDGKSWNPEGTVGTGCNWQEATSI
UniProt P15941, residues 24-1255: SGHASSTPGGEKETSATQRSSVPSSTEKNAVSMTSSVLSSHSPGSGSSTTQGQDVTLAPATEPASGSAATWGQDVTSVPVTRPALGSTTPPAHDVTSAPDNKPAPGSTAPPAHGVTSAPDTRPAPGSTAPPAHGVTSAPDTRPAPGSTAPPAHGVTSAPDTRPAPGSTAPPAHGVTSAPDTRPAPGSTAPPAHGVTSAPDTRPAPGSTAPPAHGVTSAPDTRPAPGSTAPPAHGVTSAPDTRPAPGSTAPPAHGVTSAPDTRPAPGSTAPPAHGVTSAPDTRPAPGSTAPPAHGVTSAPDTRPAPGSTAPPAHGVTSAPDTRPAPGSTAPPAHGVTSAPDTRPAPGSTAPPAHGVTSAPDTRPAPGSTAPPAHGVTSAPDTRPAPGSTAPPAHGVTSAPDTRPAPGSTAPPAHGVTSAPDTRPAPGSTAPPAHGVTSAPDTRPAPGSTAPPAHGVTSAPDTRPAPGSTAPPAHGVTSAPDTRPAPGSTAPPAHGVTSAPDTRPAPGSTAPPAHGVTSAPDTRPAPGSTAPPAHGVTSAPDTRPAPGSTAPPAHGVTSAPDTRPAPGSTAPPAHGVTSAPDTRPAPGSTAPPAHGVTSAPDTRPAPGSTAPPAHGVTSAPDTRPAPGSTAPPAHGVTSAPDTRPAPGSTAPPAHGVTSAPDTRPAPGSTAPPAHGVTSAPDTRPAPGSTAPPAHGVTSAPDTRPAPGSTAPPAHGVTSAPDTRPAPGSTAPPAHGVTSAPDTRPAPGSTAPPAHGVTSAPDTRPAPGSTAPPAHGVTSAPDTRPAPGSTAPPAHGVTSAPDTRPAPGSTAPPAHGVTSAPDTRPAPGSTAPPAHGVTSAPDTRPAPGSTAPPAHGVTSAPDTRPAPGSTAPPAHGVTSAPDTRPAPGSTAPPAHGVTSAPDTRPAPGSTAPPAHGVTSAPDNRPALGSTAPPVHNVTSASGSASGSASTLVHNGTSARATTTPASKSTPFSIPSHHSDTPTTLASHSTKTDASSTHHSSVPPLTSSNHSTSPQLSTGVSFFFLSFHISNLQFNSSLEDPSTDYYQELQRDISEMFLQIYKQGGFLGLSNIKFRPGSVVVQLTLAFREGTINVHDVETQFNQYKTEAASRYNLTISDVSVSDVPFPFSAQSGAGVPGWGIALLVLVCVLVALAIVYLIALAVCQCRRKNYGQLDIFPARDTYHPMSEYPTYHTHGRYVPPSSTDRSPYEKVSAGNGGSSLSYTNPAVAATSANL
UniProt Q99836: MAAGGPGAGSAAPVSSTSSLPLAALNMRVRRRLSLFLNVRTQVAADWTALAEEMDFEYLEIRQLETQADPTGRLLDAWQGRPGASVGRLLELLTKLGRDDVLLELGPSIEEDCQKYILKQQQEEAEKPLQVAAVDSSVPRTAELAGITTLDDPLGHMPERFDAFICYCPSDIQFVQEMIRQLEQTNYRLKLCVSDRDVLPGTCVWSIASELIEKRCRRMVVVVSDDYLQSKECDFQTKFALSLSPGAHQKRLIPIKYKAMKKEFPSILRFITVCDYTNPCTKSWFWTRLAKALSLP

Molecular target: Toll-like receptor 4 (TLR4) (human (endogenous in BEAS-2B)) (UniProt O00206)
Assay: co-IP; endogenous proteins in NP40 lysates of BEAS-2B cells; overnight at 4 °C with immunoprecipitating antibody against MUC1-CT, MyD88, TLR4 or rabbit IgG, protein A/G agarose beads 2 h, immunoblot; cells with or without LPS (5 µg/mL, 24 h) and MUC1-siRNA or NC-siRNA

| binding | Substance |
| --- | --- |
| binds | Mucin 1 (MUC1) (from UniProt P15941 24-1255) |
| binds | myeloid differentiation primary response 88 (MyD88) (from UniProt Q99836 1-296) |
